# Screening data, single-dose tests

Amino acid sequences for entries named in this document (tags omitted). Residues count along the entry.
UniProt Q8IDJ8, 1-583: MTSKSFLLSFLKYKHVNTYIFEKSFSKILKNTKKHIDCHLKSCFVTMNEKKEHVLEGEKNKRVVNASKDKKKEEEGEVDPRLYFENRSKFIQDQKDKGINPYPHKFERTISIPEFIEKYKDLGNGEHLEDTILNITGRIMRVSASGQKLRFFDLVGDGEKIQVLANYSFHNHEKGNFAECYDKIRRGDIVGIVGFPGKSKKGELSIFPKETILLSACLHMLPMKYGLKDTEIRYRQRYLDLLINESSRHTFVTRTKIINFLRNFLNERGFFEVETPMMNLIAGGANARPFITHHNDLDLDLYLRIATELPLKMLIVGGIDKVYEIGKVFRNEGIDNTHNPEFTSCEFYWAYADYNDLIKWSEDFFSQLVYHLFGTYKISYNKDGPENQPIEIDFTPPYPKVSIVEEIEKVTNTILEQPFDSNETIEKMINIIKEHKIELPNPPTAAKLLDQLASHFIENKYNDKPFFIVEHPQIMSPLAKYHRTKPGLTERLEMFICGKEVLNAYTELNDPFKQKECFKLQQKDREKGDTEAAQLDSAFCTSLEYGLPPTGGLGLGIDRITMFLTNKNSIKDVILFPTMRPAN
UniProt Q4DA54, 1-478: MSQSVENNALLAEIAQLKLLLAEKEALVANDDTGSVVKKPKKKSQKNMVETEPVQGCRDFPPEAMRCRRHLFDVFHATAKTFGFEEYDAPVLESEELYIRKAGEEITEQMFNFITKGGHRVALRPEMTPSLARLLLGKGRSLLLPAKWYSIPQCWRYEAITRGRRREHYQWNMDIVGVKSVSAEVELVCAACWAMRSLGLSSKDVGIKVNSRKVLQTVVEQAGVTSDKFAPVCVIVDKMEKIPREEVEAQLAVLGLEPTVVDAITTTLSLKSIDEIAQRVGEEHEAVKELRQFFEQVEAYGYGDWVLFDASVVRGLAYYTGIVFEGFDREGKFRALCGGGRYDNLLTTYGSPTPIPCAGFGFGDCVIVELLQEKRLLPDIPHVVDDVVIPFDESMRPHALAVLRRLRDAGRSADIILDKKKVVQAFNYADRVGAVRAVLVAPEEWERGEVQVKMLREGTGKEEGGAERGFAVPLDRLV
UniProt I6X8D2, whole entry: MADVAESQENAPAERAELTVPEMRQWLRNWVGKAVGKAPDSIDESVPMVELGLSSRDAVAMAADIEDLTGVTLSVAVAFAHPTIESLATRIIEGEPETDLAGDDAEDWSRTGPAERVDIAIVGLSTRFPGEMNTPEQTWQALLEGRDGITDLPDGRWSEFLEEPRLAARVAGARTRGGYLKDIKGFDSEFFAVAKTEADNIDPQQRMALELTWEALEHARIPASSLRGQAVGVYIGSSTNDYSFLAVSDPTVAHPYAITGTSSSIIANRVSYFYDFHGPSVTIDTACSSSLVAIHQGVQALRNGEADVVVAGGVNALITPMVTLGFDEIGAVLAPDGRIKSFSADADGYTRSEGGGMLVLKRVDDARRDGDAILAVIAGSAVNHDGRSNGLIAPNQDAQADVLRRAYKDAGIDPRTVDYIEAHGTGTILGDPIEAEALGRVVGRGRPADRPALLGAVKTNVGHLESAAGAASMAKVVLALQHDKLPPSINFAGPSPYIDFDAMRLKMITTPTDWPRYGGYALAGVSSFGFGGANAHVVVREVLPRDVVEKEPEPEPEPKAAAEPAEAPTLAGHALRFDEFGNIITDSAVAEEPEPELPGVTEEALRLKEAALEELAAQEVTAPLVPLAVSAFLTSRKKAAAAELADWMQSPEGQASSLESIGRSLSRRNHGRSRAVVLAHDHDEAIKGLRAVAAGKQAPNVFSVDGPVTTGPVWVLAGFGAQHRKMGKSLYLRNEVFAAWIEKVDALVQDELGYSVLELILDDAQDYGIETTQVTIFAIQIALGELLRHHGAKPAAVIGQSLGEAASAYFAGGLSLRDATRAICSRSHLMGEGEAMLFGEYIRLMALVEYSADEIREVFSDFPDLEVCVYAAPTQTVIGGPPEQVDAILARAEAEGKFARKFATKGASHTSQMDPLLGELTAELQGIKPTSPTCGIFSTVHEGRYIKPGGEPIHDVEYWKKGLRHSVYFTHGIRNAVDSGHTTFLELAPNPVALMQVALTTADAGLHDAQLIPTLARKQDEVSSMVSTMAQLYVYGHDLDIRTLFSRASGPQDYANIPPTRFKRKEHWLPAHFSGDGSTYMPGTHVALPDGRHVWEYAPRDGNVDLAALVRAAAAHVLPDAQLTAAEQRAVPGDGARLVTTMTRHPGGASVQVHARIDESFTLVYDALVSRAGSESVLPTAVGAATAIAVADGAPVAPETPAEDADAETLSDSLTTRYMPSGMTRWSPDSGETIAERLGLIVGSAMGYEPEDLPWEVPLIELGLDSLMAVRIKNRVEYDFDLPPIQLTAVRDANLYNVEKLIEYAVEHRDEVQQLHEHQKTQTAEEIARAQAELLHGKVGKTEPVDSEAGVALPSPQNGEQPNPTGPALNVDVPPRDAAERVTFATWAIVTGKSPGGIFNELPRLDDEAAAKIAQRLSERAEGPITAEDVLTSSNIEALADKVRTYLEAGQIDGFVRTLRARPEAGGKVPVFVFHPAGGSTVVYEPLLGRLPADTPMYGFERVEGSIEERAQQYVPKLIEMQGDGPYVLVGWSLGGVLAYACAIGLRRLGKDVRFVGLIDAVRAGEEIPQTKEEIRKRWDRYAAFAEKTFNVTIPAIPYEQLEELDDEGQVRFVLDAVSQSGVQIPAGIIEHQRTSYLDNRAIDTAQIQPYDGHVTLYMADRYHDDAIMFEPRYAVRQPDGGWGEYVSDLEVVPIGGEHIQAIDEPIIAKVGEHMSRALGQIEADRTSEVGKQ

PfKRS1: 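Lysine-tRNA ligase, Plasmodium falciparum 3D7 (UniProt Q8IDJ8). Enzyme assay of the cytosolic lysyl-tRNA synthetase in 384-well plates, read by luminescence. Compounds at 30 µM. Higher reads as stronger inhibition, judged from the few compounds that gave an IC50. Size under these conditions: about 69,000 compounds, about 49 of them at 50% or above in at least one test.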
TcHisRS: 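Enzyme assay of histidyl-tRNA synthetase; the read-out is not stated. Target: Histidine-tRNA ligase, Trypanosoma cruzi CL Brener (UniProt Q4DA54). Tested at 30 µM. Direction is inferred from retests: higher values go with stronger inhibition. About 69,000 compounds were tested under these conditions; 0.045% (about 31) showed 50% or more at least once.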
Leishmania in macrophages: 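Cell assay of Leishmania donovani living inside macrophages; the read-out is not stated. Compounds at 30 µM. Higher reads as stronger inhibition (inferred: compounds with an IC50 in retests scored well above the rest). Of about 69,000 compounds tested this way, about 1,000 (1.5%) reached 50% or more in at least one test.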
Pks13 thioesterase: 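Enzyme assay of the thioesterase domain of polyketide synthase 13; the read-out is not stated. Target: Polyketide synthase Pks13, Mycobacterium tuberculosis (UniProt I6X8D2). Compounds at 30 µM. Higher reads as stronger inhibition (inferred from which compounds were picked for retests). Of about 67,000 compounds tested this way, about 300 (0.46%) reached 50% or more in at least one test.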

The filed quantity is “Percent Effect” (%).
The controls that fix the scale are not given in the record; negative values are as filed.
The compounds are a random part of those screened.

{"structure": "Cc1nc(Nc2cnccn2)cc(C2CN(C(C)C)C2)n1", "PfKRS1": 1.331, "TcHisRS": 1.498, "Pks13 thioesterase": -7.268}
{"structure": "Cc1noc(C)c1-c1cncc(C2CCCN2Cc2cc[nH]n2)n1", "stereo": "centres undefined", "PfKRS1": -0.8291, "TcHisRS": 6.742, "Leishmania in macrophages": 17.16, "Pks13 thioesterase": -5.28}
{"structure": "O=C(O)C1(n2ccc(-c3ccco3)n2)CCN(Cc2cccnc2)CC1", "PfKRS1": -0.01147, "TcHisRS": 2.01, "Leishmania in macrophages": 0.9147, "Pks13 thioesterase": -18.48}
{"structure": "CCOc1ccc(C(=O)N2C[C@H]3CC[C@@H]2CN(C(=O)C2CCC2)C3)cc1", "PfKRS1": 5.086, "TcHisRS": 3.518, "Pks13 thioesterase": -4.603}
{"structure": "CN(C)CCCNc1ncnc2cccc(F)c12", "PfKRS1": 0.8933, "TcHisRS": 10, "Leishmania in macrophages": 29.09, "Pks13 thioesterase": 13.84}
{"structure": "COc1cccc(Nc2nc(N3CCCC3)nc3c2CNCC3)c1", "PfKRS1": 3.443, "TcHisRS": 5.385, "Pks13 thioesterase": -11.66}
{"structure": "[H][C@]12CC[C@]([H])(CN(C(=O)N(C)C)C1)N(Cc1ccc3nsnc3c1)C2", "Leishmania in macrophages": 7.596}
{"structure": "O=C(O)C(F)(F)F.[H][C@@]12CCN(c3ncccn3)C[C@@]1([H])O[C@@H](C(=O)NCc1ccco1)C2", "Leishmania in macrophages": 2.336}
{"structure": "Cc1ccc2c(c1)C(NC(=O)N(C)C)CC21CCN(C(C)C)CC1.O=C(O)C(F)(F)F", "stereo": "centres undefined", "Leishmania in macrophages": -11.4}
{"structure": "C[C@@H](NC(=O)c1ccc(Cl)cc1)c1onc(-c2cccnc2)c1C(=O)O", "PfKRS1": 7.381, "TcHisRS": 1.493, "Pks13 thioesterase": -9.424}
{"structure": "Cc1nc(C(=O)N2CCCC2c2noc(C3CC3)n2)c[nH]1", "stereo": "centres undefined", "PfKRS1": -0.3823, "TcHisRS": 2.825, "Leishmania in macrophages": 25.29, "Pks13 thioesterase": -16.06}
{"structure": "CN1CCC2(CC1)CN(C)C(=O)C[C@@H]2C(F)(F)F", "PfKRS1": -0.1052, "TcHisRS": 1.227, "Leishmania in macrophages": 36.65, "Pks13 thioesterase": -28.11}
{"structure": "Cc1nc(CN2CCCC(N(C)Cc3cnc(C)s3)C2)no1", "stereo": "centres undefined", "PfKRS1": -6.287, "TcHisRS": 7.563, "Leishmania in macrophages": -22, "Pks13 thioesterase": -3.695}
{"structure": "Cc1cccc(CN2C(=O)C[C@H]3[C@@H]2CCN3Cc2nccs2)n1", "PfKRS1": 5.677, "TcHisRS": 4.327, "Pks13 thioesterase": -12.97}
{"structure": "O=C(O)[C@@H]1CN(C2CCCC2)C[C@H]1C1CC1", "PfKRS1": 3.929, "TcHisRS": -3.279, "Leishmania in macrophages": 12.14, "Pks13 thioesterase": -20.65}
{"structure": "CCN(c1ccc(C(=O)N2CCCC2)cc1)S(=O)(=O)CC", "PfKRS1": 6.391, "TcHisRS": 3.252, "Leishmania in macrophages": -17.27, "Pks13 thioesterase": -4.443}
{"structure": "CC[C@H]1COCCN1C(=O)c1cnc(-c2ccccc2)nc1C", "PfKRS1": 0.4753, "TcHisRS": 11.76, "Leishmania in macrophages": 2.884}
{"structure": "COCCCN(Cc1ccccn1)S(=O)(=O)Cc1ccccc1", "PfKRS1": 0.6461, "TcHisRS": -1.554, "Leishmania in macrophages": -38.25, "Pks13 thioesterase": -7.754}
{"structure": "[H][C@@]12C[C@@H](C(=O)Nc3cnccn3)CN(c3ncc(F)cn3)[C@]1([H])CCO2", "Leishmania in macrophages": 2.657}
{"structure": "O=C(Nc1ccncc1)N(CCO)Cc1ccsc1", "PfKRS1": 9.528, "TcHisRS": 4.734, "Leishmania in macrophages": 18.39, "Pks13 thioesterase": 1.966}
{"structure": "CN1CCCN(S(=O)(=O)c2cnn(C)c2)c2cc(Cl)ccc21", "PfKRS1": 2.144, "TcHisRS": 3.175, "Leishmania in macrophages": -13.19, "Pks13 thioesterase": -15.08}
{"structure": "CN1CCOC(CNC(=O)C2(c3ccccc3)CCC2)C1", "stereo": "centres undefined", "PfKRS1": 1.833, "TcHisRS": 0, "Leishmania in macrophages": -51.74, "Pks13 thioesterase": -14.48}
{"structure": "Cc1nnc(C2Cc3ccccc3CN2Cc2ncc(C(C)(C)C)o2)o1", "stereo": "centres undefined", "PfKRS1": -4.161, "TcHisRS": 2.642, "Leishmania in macrophages": -6.92, "Pks13 thioesterase": 11.71}
{"structure": "CCOCCN1Cc2cnn(C)c2C(COCC)C1.O=C(O)C(F)(F)F.O=C(O)C(F)(F)F", "stereo": "centres undefined", "Leishmania in macrophages": -17.77}
{"structure": "CN(CCC#N)C(=O)Cn1cnc2c(Br)cccc2c1=O", "PfKRS1": -0.3131, "TcHisRS": 0.5525, "Leishmania in macrophages": 12.13, "Pks13 thioesterase": -10.92}
{"structure": "CCO[C@H]1C[C@@H](O)C12CCN(C1Cc3ccccc3C1)CC2", "PfKRS1": 2.594, "TcHisRS": 6.154, "Leishmania in macrophages": 10.64, "Pks13 thioesterase": -7.862}
{"structure": "CCc1cccc(N2CCC(NC(=O)CCNC(N)=O)CC2)c1", "PfKRS1": 0.8274, "TcHisRS": -3.38, "Leishmania in macrophages": -5.046, "Pks13 thioesterase": -9.61}
{"structure": "Cc1nc(N)c2ccc(C3CCCN3)nc2n1", "stereo": "centres undefined", "PfKRS1": 2.242, "TcHisRS": 5.085, "Pks13 thioesterase": 7.205}

Once more, the final 2:

CCc1cccc(N2CCC(NC(=O)CCNC(N)=O)CC2)c1 gave PfKRS1: 0.8274%; TcHisRS: -3.38%; Leishmania in macrophages: -5.046%; Pks13 thioesterase: -9.61%.
Cc1nc(N)c2ccc(C3CCCN3)nc2n1 (centres undefined) gave PfKRS1: 2.242%; TcHisRS: 5.085%; Pks13 thioesterase: 7.205%.

The values are deposited in ChEMBL (CHEMBL3988442, “University of Dundee, Small-Polar-MMV Screening Library” (2021)).